The comparison behind a weaker result is the experiment's own reference, which may not be listed here.
Tested on: hMSH2:hMSH6 heterodimer (Homo sapiens)
Assay: EMSA
Settings: non-specific NS-shifted complex; not saturable even above 400 nM; insensitive to ATP; unstable to competitor homoduplex; purified recombinant protein; label: 32P 5' end

Chains of the proteins cited; added tags and fusions are not shown. A line that says so, or that is headed by a name, gives the form on record, which may keep a tag or linker.
hMSH2:hMSH6 heterodimer (Homo sapiens), one chain, as listed by the source, chain 2 of 2: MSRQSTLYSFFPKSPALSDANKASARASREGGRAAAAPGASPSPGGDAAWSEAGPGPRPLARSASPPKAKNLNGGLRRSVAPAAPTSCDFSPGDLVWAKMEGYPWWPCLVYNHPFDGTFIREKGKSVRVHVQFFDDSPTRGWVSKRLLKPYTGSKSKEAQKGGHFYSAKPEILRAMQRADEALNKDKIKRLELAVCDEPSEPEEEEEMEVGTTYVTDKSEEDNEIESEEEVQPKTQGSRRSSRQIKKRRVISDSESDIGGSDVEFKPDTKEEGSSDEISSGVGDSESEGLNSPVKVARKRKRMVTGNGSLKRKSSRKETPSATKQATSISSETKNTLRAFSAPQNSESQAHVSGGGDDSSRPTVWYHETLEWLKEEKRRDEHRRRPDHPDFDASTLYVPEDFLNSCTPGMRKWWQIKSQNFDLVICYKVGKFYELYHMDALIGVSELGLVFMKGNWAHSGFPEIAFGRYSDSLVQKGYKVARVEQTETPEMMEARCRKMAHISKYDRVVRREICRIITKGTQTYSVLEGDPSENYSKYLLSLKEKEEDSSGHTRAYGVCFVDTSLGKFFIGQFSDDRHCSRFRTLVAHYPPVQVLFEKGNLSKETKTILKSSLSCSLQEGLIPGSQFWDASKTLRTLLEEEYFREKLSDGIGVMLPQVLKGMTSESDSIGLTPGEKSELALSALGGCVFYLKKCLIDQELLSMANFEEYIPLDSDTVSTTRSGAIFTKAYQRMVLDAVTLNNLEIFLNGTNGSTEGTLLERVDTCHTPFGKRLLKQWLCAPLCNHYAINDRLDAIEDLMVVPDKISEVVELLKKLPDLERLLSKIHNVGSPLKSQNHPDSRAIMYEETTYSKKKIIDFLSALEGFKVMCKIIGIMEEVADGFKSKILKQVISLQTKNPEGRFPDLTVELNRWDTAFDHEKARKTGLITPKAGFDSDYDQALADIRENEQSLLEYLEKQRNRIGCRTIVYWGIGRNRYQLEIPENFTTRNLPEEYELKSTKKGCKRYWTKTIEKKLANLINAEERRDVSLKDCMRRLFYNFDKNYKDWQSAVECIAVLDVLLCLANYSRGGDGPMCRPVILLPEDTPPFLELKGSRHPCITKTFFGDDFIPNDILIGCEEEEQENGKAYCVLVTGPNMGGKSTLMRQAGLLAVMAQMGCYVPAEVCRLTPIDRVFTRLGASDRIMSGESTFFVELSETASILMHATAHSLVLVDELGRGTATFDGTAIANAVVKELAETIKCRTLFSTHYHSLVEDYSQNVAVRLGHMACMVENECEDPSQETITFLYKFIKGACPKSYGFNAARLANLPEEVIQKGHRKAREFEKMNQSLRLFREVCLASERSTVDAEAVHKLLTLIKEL
hMSH2:hMSH6 heterodimer (Homo sapiens), one chain, as listed by the source, chain 1 of 2: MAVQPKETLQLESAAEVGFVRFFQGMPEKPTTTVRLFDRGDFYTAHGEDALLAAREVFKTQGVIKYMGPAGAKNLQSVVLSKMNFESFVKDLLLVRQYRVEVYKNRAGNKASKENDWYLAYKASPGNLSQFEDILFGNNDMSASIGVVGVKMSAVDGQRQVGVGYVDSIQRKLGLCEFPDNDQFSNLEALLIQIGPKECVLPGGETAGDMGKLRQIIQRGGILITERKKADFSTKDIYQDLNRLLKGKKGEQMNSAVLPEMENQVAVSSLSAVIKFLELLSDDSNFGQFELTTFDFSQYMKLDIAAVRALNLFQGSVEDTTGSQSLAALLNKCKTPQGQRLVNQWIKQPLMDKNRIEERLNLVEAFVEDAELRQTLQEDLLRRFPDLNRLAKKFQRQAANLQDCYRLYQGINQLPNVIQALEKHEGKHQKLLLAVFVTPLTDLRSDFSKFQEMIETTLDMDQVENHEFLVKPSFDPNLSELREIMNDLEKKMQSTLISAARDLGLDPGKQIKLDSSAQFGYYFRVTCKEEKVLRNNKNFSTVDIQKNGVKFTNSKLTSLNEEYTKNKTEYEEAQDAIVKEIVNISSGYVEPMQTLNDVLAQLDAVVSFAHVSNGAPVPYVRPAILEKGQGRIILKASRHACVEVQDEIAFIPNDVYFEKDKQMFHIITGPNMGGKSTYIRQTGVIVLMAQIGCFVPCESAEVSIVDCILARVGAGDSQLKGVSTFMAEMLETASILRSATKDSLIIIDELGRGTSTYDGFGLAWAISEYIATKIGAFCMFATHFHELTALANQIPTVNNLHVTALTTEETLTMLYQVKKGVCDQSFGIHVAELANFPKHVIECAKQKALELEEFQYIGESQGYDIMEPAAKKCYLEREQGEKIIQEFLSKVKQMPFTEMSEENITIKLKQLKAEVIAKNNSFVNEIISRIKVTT

“AAAGCTGGAGCTGAAGCTTAGCTTAGGATCATCGAGGATCGAGCTCGGTGCAATTCAGCGGTACCCAATTCGCCCTATAGT (double strand) [homologous 81-bp duplex]”: binds more weakly.

— patent publication US20020058275
